Laboratory results published in the supplement of paper PMC5407854, “Inhibitor of ppGalNAc-T3-mediated O-glycosylation blocks cancer cell invasiveness and lowers FGF23 levels” (eLife, 2017).
In all, about 1,700 compounds were measured (“T3 sensor activation Q score (MG/GFP ratio z-score vs DMSO controls)”: median about 0.25, highest 2% from about 1.9 on). Some of the results follow.

Test system: ppGalNAc-T3 sensor
Test: T3 sensor activation Q score (MG/GFP ratio z-score vs DMSO controls) (SD units); higher = more sensor activation (inhibition of ppGalNAc-T3 glycosylation)
Details: HEK293 sensor cells; 10 µM; 6 h
Description: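 Cells were treated with compound at 10 uM for 6 h, then MG/GFP ratio was read by flow cytometry (10,000 cells per well, duplicate wells). Q = (R - R_neg)/SD_neg relative to DMSO vehicle controls; the signal rises when the glycosyltransferase is inhibited.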

| SMILES | T3 sensor activation Q score |
| --- | --- |
| O=C1CN=C(c2ccc[nH]2)c2cc(Cl)ccc2N1 | 0.2 |
| O=[N+]([O-])c1ccc(-c2ccccc2)c([As](=O)(O)O)c1 | 0.35 |
| C[C@]12CC[C@@H]3c4ccc(OC(=O)N(CCCl)CCCl)cc4CC[C@H]3[C@@H]1CC[C@@H]2OP(=O)(O)O | -0.8 |
| C[C@H]1CC[C@@]2(C)[C@@H](CC[C@@H]3[C@@H]2CC[C@]2(C)[C@@H](O)CC[C@@H]32)C1 | 3 |
| CCOP(=O)(OCC)/C(C#N)=C/c1ccc(Br)cc1 | 0.6 |
| c1ccc(C2NCCc3[nH]cnc32)cc1 (stereo not drawn) | 0.4 |
| CCOC(=O)c1ccc2[nH]c(-c3ccc(S(=O)(=O)F)cc3)cc(=O)c2c1 | 0.95 |
| O=c1cc(-c2nn[nH]n2)[nH]c(=O)[nH]1 | 0.45 |
| NN=C1C(Cl)=C(Cl)C(Cl)=C1Cl | -1.5 |
| CCN(CC)c1ccc(C=C2C(=O)NC(=S)NC2=O)cc1 | -0.95 |
| Cn1c(CCCC(=O)O)nc2cc(N(CCCl)CCCl)ccc21 | -0.35 |
| c1cncc(C2Nc3cccc4cccc(c34)N2)c1 | 1.65 |
| O=c1cccc2n1C[C@H]1C[C@@H]2CN2CCCC[C@@H]12 | 0.2 |
| COC(=O)C1C(O)C(C)C(O)C(C)/C=C\C=C(C)C(=O)Nc2c(C)c(OC(C)=O)c3c(c2O)C(=O)C(C)=C2OCOC(=C23)C(C)=CC(C)(O)C(O)C(C)C1O (stereo not drawn) | -0.9 |
| c1cnc2c(c1)ccc1ncccc12 | 1.15 |
| N#CC12CNCC1CN=N2 (stereo not drawn) | 1.65 |
| Cc1nc(C)c(C(=O)N/N=C/c2ccc(N(CCCl)CCCl)cc2)s1 | 0.55 |
| O=c1cccc2n1C[C@@H]1CNC[C@H]2C1 | 0.35 |
| CN1CCN(c2nc(N)cc(=O)[nH]2)CC1 | 0.85 |
| CC(C)(C)c1cc(C=C(C#N)C#N)cc(C(C)(C)C)c1O | -4.4 |
| O=C1N[C@H]2[C@H](O)[C@H](O)[C@@H](O)[C@H](O)[C@@H]2c2cc3c(c(O)c21)OCO3 | -0.7 |
| O=C1C[C@@H]2OCC=C3C[N+]4([O-])CC[C@]56c7ccccc7N1[C@H]5[C@H]2[C@H]3C[C@@H]64 (stereo partly drawn) | 0.2 |
| FCCN(CCF)c1cccc(Cl)c1 | 1.9 |

| SMILES | T3 sensor activation Q score |
| --- | --- |
| C=C1C/C(=C/C)C(=O)O[C@@H]2CCN3CC=C(COC(=O)[C@]1(C)O)[C@H]23 | 0.65 |
| O=C1/C(=C\c2ccccc2)C2OCC=C3CN4CCC56c7ccccc7N1C5C2C3CC46 (stereo not drawn) | 0.85 |
| C=C1C(=O)O[C@H]2C[C@@]3(C)O[C@@H]3CC/C(C)=C/[C@@H](OC(C)=O)[C@H]12 | 1.05 |
| O=P(OC1=CCCCC1)(c1ccccc1)c1ccccc1 | 1.05 |
| Nc1nc(N)c2cnnn2n1 | 0.5 |
| O=[N+]([O-])c1cc([As](=O)(O)c2ccc(O)c([N+](=O)[O-])c2)ccc1O | -1.4 |
| CN1C2CCC1[C@@H](COC(=O)c1ccccc1)[C@@H](O)C2 (stereo partly drawn) | 0.75 |
| O=C1N(c2nncs2)CCN1[N+](=O)[O-] | 2.65 |
| N=Cc1c(O)n(-c2ccccc2)c(=O)n(-c2ccccc2)c1=O | 1.25 |
| CSc1nc(N)c(N=Nc2ccc([As](=O)(O)O)cc2)c(=O)[nH]1 | -1.35 |
| CN1CCCC1c1ccc(=O)[nH]c1 (stereo not drawn) | 0.55 |
| CCCC(=O)N(C)C1=Nc2ccc(Cl)cc2C(c2ccccc2)=[N+]([O-])C1 | -0.25 |
| COc1ccc2c(c1)NP(=S)(Oc1ccccc1)N2 (stereo not drawn) | -0.15 |
| C=C1C[C@@H]2[C@H](CC[C@]3(C)C(=O)CC[C@@H]23)[C@@]2(C)C=CC(=O)C=C12 | 0.45 |
| CN(C)P(=O)(N(C)C)N1CC1 | -0.4 |
| Cn1cc(C=O)c2nccnc21 | -1.5 |
| C1CC2NCCC3NCCC(N1)N32 (stereo not drawn) | -0.95 |
| C=CCN1CCC23c4c5ccc(O)c4OC2C(=O)CCC3(O)C1C5 (stereo not drawn) | 0.65 |
| CC(=O)Nc1ccc([As](=O)(O)c2ccc([N+](=O)[O-])cc2)cc1 | 0.1 |
| O=P1(N(CCCl)CCCl)NCCCO1 (stereo not drawn) | -0.1 |
| COc1ccc(C(=O)OC2CCC3(C)C4CCC5C6(O)CC(O)C7(O)C(CN8CC(C)CCC8C7(C)O)C6(O)CC53OC24O)cc1OC (stereo not drawn) | 0.75 |
| C1CN1c1nc(N2CC2)nc(N2CC2)n1 | 0.65 |
| O=C(O)c1[nH]c(=O)[nH]c(=O)c1F | 0.75 |

| SMILES | T3 sensor activation Q score |
| --- | --- |
| Cc1c(C(=O)c2ccccc2)c2ccccc2n1C | 1.35 |
| CN1C(=O)CC[C@@]2(C)C1=CC[C@@H]1[C@@H]2CC[C@@]2(C)[C@H]1CC[C@]2(C)O | 0.4 |
| COc1cc2c(cc1O)C[C@H]1c3c(cc(O)c(OC)c3-2)CCN1C | -0.55 |
| COc1cc(C=C2C(=O)NC(=O)NC2=O)ccc1O | 0.7 |
| O=C(O)CN1C(=O)CN=C(c2ccccn2)c2cc(Cl)ccc21 | 0.1 |
| C/C=C/CC1(CC)C(=O)NC(=S)NC1=O | -0.45 |
| CN(C)C1CCc2[nH]c3c(F)cc(F)cc3c2C1 (stereo not drawn) | 1.25 |
| CCC1CN1P(=O)(Oc1ccc(Cl)cc1)N1CC1CC (stereo not drawn) | 1.35 |
| NC(=S)c1cn([C@@H]2O[C@H](CO)[C@@H](O)[C@H]2O)c2ncnc(N)c12 | 4.95 |
| CN1CCC2(O)OCCCC2C1 (stereo not drawn) | 0.45 |
| C[C@H](N)C(=O)N[C@@H]1[C@H]2C(=C(O)C[C@@H](O)[C@@H]2O)C(=O)O[C@]1(C)C(Cl)Cl | -1.45 |
| CC1(C)CC(=O)CC(C)(C)N1O | -1.9 |
| CN1C2c3ccccc3C3C4c5ccccc5C(C31)C(C2[N+](=O)[O-])N4C (stereo not drawn) | 1.1 |
| CC(=O)Nc1cc([As](=O)(O)O)ccc1O | 1.4 |
| CC12CCC3C(CCC4Cc5[nH]c6ccccc6c5CC43C)C1CCC2O (stereo not drawn) | 0.6 |
| CCN1CCc2ccccc2C1 | 1.2 |
| CCC(C)c1cnc(CC(C)C)c(=O)n1O (stereo not drawn) | 0.05 |
| NCCCNCCSP(=O)(O)O | 1.15 |
| COC1C(OC(=O)c2ccc(C)[nH]2)C(O)C(Oc2ccc3c(O)c(NC(=O)c4ccc(O)c(CC=C(C)C)c4)c(=O)oc3c2Cl)OC1(C)C (stereo not drawn) | -0.95 |
| CCC(CO)NC(=O)C1C=C2c3cccc4[nH]cc(c34)CC2N(C)C1 (stereo not drawn) | 1.8 |
| COc1ccc(CCNC2(C#N)CCCCC2)cc1OC | 0.2 |
| Cc1c(CCN)ccc2c1[nH]c1ccccc12 | 0.7 |
| O=C(CF)N(O)c1ccc(/C=C/c2ccccc2)cc1 | -1.1 |

5 compounds already listed, ordered by SMILES length, smallest number first:

| SMILES | T3 sensor activation Q score |
| --- | --- |
| FCCN(CCF)c1cccc(Cl)c1 | 1.9 |
| Cc1nc(C)c(C(=O)N/N=C/c2ccc(N(CCCl)CCCl)cc2)s1 | 0.55 |
| CC(=O)Nc1ccc([As](=O)(O)c2ccc([N+](=O)[O-])cc2)cc1 | 0.1 |
| COc1ccc(C(=O)OC2CCC3(C)C4CCC5C6(O)CC(O)C7(O)C(CN8CC(C)CCC8C7(C)O)C6(O)CC53OC24O)cc1OC (stereo not drawn) | 0.75 |
| COC(=O)C1C(O)C(C)C(O)C(C)/C=C\C=C(C)C(=O)Nc2c(C)c(OC(C)=O)c3c(c2O)C(=O)C(C)=C2OCOC(=C23)C(C)=CC(C)(O)C(O)C(C)C1O (stereo not drawn) | -0.9 |

Later entries:

| SMILES | T3 sensor activation Q score |
| --- | --- |
| Cc1cc(OCCN2CC2)c2ccccc2n1 | 0 |
| O=C(NC(=O)c1c(F)cccc1F)Nc1cc(Cl)c(F)c(Cl)c1F | -0.65 |
| CC(C)NC1C2CCC(CC2)C1(O)c1ccc(Cl)c(Cl)c1 (stereo not drawn) | 0.45 |
| CC(C)(O)C1C2OC(=O)C1C1(O)CC3OC34C(=O)OC2C14C (stereo not drawn) | 0.4 |
| CO[C@@]12[C@H](COC(N)=O)C3=C(C(=O)C(C)=C(N)C3=O)N1C[C@H]1[C@@H]2N1C (stereo partly drawn) | 1.1 |
| S=C1NC2(CCCCC2)NC12CCCCC2 | 0.55 |
| CC1CC(C)OP(=O)(OCCC#N)O1 (stereo not drawn) | -0.7 |
| CC(C)CC(NC=O)C(=O)O.COc1cc2c(cc1OC)C13CCN4CC5=CCOC6CC(=O)N2C1C6C5CC43 (stereo not drawn) | 0.15 |
| CN1C(=O)NC(=O)C(N=Nc2ccc(Cl)cc2)C1=O (stereo not drawn) | 1.7 |
| COc1ccc2c(c1)C13CCN(C)C(C2)C1CCC1(C3)OCCO1 (stereo not drawn) | 0.55 |
| N#CC(C#N)=Cc1ccc(C=C(C#N)C#N)cc1 | -0.85 |
| O=C(NCCCN1CC1)Nc1cccc2ccccc12 | 1.55 |
| COc1ccc2c(c1O)[C@]13CCN(C)[C@H](C2)[C@@H]1CCC(=O)C3 | -0.4 |
| C=CCNC(=S)Nc1ccc(OC(=O)Nc2ccc(Cl)c(Cl)c2)cc1 | 0.4 |
| c1cc(C2N3CCCN2CC3)ccn1 (stereo not drawn) | 0.05 |
| ClC1=C(Cl)C(Cl)=C(Cl)C1=C/C=C/c1ccccc1 | -0.6 |
| Cc1c2ccncc2c(C)c2c1[nH]c1ccccc12 | 0.15 |
| CC[C@@]1(O)C(=O)OCc2c1cc1n(c2=O)Cc2cc3c(NC(=O)CN)cccc3nc2-1 | -1.65 |
| O=P1(NCCCl)OCCCN1CCCl (stereo not drawn) | -0.15 |
| Oc1cccc2nc3ccccc3nc12 | -0.35 |
| CN1CCC(c2c[nH]c3ccccc23)C1 (stereo not drawn) | 1.75 |
| CCC(N)Cc1c[nH]c2ccccc12 (stereo not drawn) | 0.25 |
| O=C1CCC2(O)[C@@H]3Cc4ccc(O)c5c4[C@]2(CCN3Cc2ccoc2)C1O5 (stereo partly drawn) | -0.05 |

Quoted from the listing:
CCC(N)Cc1c[nH]c2ccccc12 (stereo not drawn) | T3 sensor activation Q score: 0.25
Cc1c2ccncc2c(C)c2c1[nH]c1ccccc12 | T3 sensor activation Q score: 0.15
N#CC(C#N)=Cc1ccc(C=C(C#N)C#N)cc1 | T3 sensor activation Q score: -0.85
Cc1cc(OCCN2CC2)c2ccccc2n1 | T3 sensor activation Q score: 0

Next compounds:

| SMILES | T3 sensor activation Q score |
| --- | --- |
| COc1ccccc1[As](=O)(O)CC(O)COc1ccc(Cl)cc1Cl (stereo not drawn) | -0.4 |
| Cc1c(N)nc([C@H](CC(N)=O)NC[C@H](N)C(N)=O)nc1C(=O)N[C@H](C(=O)N[C@H](C)[C@@H](O)[C@H](C)C(=O)N[C@H](C(=O)NCCc1nc(-c2nc(C(=O)NCCC[S+](C)C)cs2)cs1)[C@@H](C)O)[C@@H](OC1OC(CO)C(O)C(O)C1OC1OC(CO)C(O)C(OC(N)=O)C1O)c1cnc[nH]1 (stereo partly drawn) | -1.6 |
| CC1=CC(O)C(O)C2(C)C1CC1OC(=O)C(O)C3C(C)C(O)C4(O)OCC13C42 (stereo not drawn) | -0.3 |
| CC(CC(C#N)(c1ccccc1)c1ccccc1)N1CCCCC1 (stereo not drawn) | 0.05 |
| Cc1n[nH]c2c([N+](=O)[O-])c(=O)[nH]c(=O)n12 | 1.2 |
| O=C(OC1CCCCC1)c1ccccc1C(=O)OC1CCCCC1 | 0.2 |
| Cc1ccccc1NC(=O)NCCN1CC1 | 1.75 |
| Cn1cnc([N+](=O)[O-])c1Sc1n[nH]c(N)n1 | 0.05 |
| CC1(C)NC(=S)C(C)(C)N1N=O | -0.35 |
| COc1cc(OC)cc(C2(C#N)CCN(C)CC2)c1 | 1.55 |
| CCc1cc2c(cc1-c1csc(C/C(N)=N/O)n1)C(C)(C)CCC2(C)C | 1.8 |
| O=C1NC(=O)C(=Cc2ccc3ccccc3c2)C(=O)N1 | 0.95 |
| O=C1CCCN1CC#CCN1CCCC1 | 1.05 |
| CC(C)(C)n1cc(C(=O)c2ccccc2)cc1-c1ccccc1 | 0.7 |
| Cc1ccc2c(c1)Oc1ccccc1N=C2 | -0.25 |
| O=[As](O)(O)c1ccc(N=Nc2ccc(O)cc2)cc1 | 0.55 |
| CN1CCN(c2nc(N)c(Br)c(Cl)n2)CC1 | 0.1 |
| O=c1[nH]cc(N(CCCl)CCCl)c(=O)[nH]1 | 0 |
| CN1CCc2cc3c(cc2C1)OCO3 | 0.2 |
| CC[C@@]1(O)C(=O)OCc2c1cc1n(c2=O)Cc2cc3ccccc3nc2-1 | -1.75 |
| CC1C(C)N1CC(O)Cn1ccnc1[N+](=O)[O-] (stereo not drawn) | 1.15 |
